# Primary screen of a compound library

The values are deposited in ChEMBL (CHEMBL3988442, “University of Dundee, Small-Polar-MMV Screening Library” (2021)).

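Viability assay of Plasmodium falciparum sporozoites; the read-out is not stated. The concentration is filed as 10 mM, unlikely as a test dose, so the dose is not known. Direction is inferred from retests: higher values go with lower viability. Strong results were mostly tested again. Of about 34,000 compounds tested this way, about 280 (0.84%) reached 50% or more in at least one test.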

The filed quantity is “Percent Effect” (%). The controls that fix the scale are not given in the record; negative values are as filed. Compounds were drawn at random from those tested, without regard to their results. Two or more numbers in one place are separate tests of the same structure; such repeats can differ widely.

Compound,Percent Effect
COC(=O)C(NC(=O)CCc1ccco1)c1cc(F)ccc1F (stereo not drawn),2.148%
COc1cc2c(cc1OC)CN(C(C(=O)O)c1c(C)nn(C)c1C)CC2 (stereo not drawn),-24.8% and -28.08% and 0.9858%
CNc1ccnc(NCCC(=O)Nc2ccccc2C)n1,-15.23%
COc1cccc2c1OCC(C(=O)N1CCN(C3CCCC3)C(=O)C1)C2 (stereo not drawn),-4.474%
Cc1occc1C(=O)N1CCC2(CCN(Cc3nccs3)C2)CC1.O=C(O)C(F)(F)F,-10.47%
O=C(O)C(F)(F)F.[H][C@@]12CCN(c3ncccn3)[C@]1([H])CC[C@H](C(=O)NCc1cccs1)O2,-4.284%
O=C(NCc1ccccc1Cn1cncn1)C1CCCCC1,2.424%
O=C(O)C(F)(F)F.O=C(O)C(F)(F)F.O=C(O)C(F)(F)F.[H][C@@]12COC[C@H](N3CCN(C)CC3)[C@]1([H])CN(Cc1ccc(OC)cc1)C2,-9.115%
O=C(CCc1nccs1)N1CCC(N2CCNC2=O)CC1,3.896%
Cc1nnc(N2CC[C@H](OCC3CC3)[C@@H](Cc3ccccc3)C2)s1.O=C(O)C(F)(F)F,-4.004%
CCCS(=O)(=O)N1CCC(NCc2c(C)nn(C)c2OC)CC1,0.1103%
CC(C)Oc1ncccc1CNC(=O)N1CCCC1c1ccsc1 (stereo not drawn),9.301%
COc1ccc(CNC(=O)C2(C#N)CCCC2)cc1,0.6719%
Cc1cc(C(=O)NCCc2c(C)nn(C)c2C)nc(N2CCCCC2)n1,4.145%
Cc1ccc(CC(=O)N2CCN(c3nccs3)CC2)s1,2.447%
CN1CC2(CCN(Cc3ccoc3)CC2)COc2ccccc2S1(=O)=O.O=C(O)C(F)(F)F,-15.69%
CC(C)CCC(C)NC(=O)c1ccc(OCC(N)=O)cc1 (stereo not drawn),-30.94%
O=C(O)C(F)(F)F.O=C1N(Cc2cccnc2)CCC12CCCN(c1ncc(F)cn1)C2 (stereo not drawn),-5.373%
O=C(COCc1ccco1)Nc1cc(C(F)(F)F)c[nH]c1=O,-12.3%
CC1CN(C)CCN1C(=O)c1ccn(-c2ccccc2)n1 (stereo not drawn),6.311%
CCNc1cc2c(nn1)CCN(C(=O)c1nccnc1N)C2,2.946%
COc1ccc(F)cc1CN1CCCC(c2cc(C(N)=O)[nH]n2)C1 (stereo not drawn),-16.67%
CCN1Cc2c(C(=O)NC(C)C(C)C)ncn2-c2ccccc2S1(=O)=O (stereo not drawn),-5.892%
O=C(NC1CC1)c1ccc(SCc2cscn2)cc1,-4.272%
Cc1cccc(S(=O)(=O)NCC(C)(C)CC(C)O)c1C#N (stereo not drawn),-5.005%
O=C(Nc1ccc(N2CCCC2)nc1)N1CCc2ccccc2C1,79.37% and 82.46% and 84.57%
Cc1cc2ccccc2n1CCC(=O)N1CCCCC1CCO (stereo not drawn),-3.122%
[H][C@]12CC[C@@]3(N=C(C)N(CC(C)C)C3=O)[C@@]1([H])CN(S(=O)(=O)N(C)C)C2,-7.086%
CCc1c(C)nn2c(O)cc(C3CCN(C(=O)c4ccn(C)n4)C3)nc12 (stereo not drawn),13.41%
[H][C@@]12CCN(CC3CC3)C[C@@]1([H])[C@H](C(=O)N1CCCC1)CCO2,5.366%
CC(C)c1ncc2c(n1)CN(Cc1ccc(C(N)=O)cc1)CC2,-0.6595%
CN(C(=O)Nc1ccncc1)C1CCN(c2ccccc2)C1=O (stereo not drawn),-2.285%
Cc1cnc2c(c1NCc1ccncc1)c(=O)n(C)c(=O)n2C,8.146%
CCNC(=O)C1(Cc2cc(-c3ccccc3)no2)CCCN(C(C)=O)C1 (stereo not drawn),5.695%
NC(=O)COc1cccc(C(=O)N2CCCC(n3ccnc3)C2)c1 (stereo not drawn),-15.79%
CNc1cc(C2CN(Cc3cccnc3NC)CCO2)nc(C)n1 (stereo not drawn),2.928%
Cc1ccc(CN2CCC(Cc3nnc(CO)n3C)CC2)cc1C,-10.3%
Cc1nnc(NC(=O)C2CSCN2C(=O)C2CCCC2)s1 (stereo not drawn),-3.333%
c1cnc(N2CCOCC3(CCN(c4cnccn4)CC3)C2)nc1,4.514%
Cn1ccnc1-c1cccc(NC(=O)NCCCO)c1,-6.495%
O=C(O)C(F)(F)F.[H][C@@]12CCN(c3cccnc3)C[C@]1([H])CN(C(=O)c1ccccc1C)C2,4.377%
Cn1nc2c(cc1=O)CN(Cc1coc(-c3cccc(F)c3)n1)CC2,3.992%
Cc1nc(-c2ccco2)ccc1C(=O)N1CCCC1Cn1cccn1 (stereo not drawn),-16.47%
CC(C)n1ccnc1C1CCN(C(=O)N2CCCC2)CC1,4.474%
O=C(O)C(F)(F)F.O=C(O)C(F)(F)F.O=C(O)C(F)(F)F.[H][C@@]12OCCN(Cc3cccnc3)[C@@]1([H])CC[C@H]2OCCN1CCCC1,8.769%
CSC(C)(C)CNC(=O)NC1CCN(C)CC1,-9.871%

Once more, the final 3:

| Compound | Percent Effect |
|---|---|
| `CC(C)n1ccnc1C1CCN(C(=O)N2CCCC2)CC1` | 4.474% |
| `O=C(O)C(F)(F)F.O=C(O)C(F)(F)F.O=C(O)C(F)(F)F.[H][C@@]12OCCN(Cc3cccnc3)[C@@]1([H])CC[C@H]2OCCN1CCCC1` | 8.769% |
| `CSC(C)(C)CNC(=O)NC1CCN(C)CC1` | -9.871% |